# Source: paper PMC7948425
# Chains of the proteins cited; added tags and fusions are not shown.
# UniProt Q9UQE7: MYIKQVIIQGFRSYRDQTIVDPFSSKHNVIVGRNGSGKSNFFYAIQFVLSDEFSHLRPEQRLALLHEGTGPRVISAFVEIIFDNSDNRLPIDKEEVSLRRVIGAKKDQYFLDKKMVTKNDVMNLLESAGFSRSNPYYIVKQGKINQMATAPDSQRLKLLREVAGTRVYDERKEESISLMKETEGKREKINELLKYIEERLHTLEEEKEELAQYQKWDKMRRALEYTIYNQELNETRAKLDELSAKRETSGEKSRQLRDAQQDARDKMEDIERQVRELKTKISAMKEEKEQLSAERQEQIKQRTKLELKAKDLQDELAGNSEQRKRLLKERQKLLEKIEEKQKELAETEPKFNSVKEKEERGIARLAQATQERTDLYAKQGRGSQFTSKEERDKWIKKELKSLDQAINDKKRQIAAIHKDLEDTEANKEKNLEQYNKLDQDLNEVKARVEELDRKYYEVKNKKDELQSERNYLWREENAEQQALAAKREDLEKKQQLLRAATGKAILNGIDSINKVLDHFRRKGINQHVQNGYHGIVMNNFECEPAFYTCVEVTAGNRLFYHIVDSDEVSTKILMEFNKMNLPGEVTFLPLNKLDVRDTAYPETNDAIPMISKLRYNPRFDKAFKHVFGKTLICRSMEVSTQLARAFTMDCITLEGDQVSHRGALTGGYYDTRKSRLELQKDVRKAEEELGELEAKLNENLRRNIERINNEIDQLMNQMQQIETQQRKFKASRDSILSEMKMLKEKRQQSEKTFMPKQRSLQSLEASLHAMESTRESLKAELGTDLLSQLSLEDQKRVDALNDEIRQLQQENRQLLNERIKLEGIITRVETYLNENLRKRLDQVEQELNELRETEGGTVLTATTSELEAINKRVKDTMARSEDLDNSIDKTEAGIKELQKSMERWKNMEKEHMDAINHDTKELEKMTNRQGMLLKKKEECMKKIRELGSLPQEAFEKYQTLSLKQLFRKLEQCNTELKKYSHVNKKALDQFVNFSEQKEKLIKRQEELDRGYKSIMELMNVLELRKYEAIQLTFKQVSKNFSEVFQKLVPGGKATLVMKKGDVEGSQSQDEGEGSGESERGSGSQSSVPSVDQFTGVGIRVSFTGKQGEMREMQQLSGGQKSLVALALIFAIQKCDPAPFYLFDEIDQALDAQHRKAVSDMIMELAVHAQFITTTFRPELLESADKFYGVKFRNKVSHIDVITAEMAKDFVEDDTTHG
# UniProt O60216: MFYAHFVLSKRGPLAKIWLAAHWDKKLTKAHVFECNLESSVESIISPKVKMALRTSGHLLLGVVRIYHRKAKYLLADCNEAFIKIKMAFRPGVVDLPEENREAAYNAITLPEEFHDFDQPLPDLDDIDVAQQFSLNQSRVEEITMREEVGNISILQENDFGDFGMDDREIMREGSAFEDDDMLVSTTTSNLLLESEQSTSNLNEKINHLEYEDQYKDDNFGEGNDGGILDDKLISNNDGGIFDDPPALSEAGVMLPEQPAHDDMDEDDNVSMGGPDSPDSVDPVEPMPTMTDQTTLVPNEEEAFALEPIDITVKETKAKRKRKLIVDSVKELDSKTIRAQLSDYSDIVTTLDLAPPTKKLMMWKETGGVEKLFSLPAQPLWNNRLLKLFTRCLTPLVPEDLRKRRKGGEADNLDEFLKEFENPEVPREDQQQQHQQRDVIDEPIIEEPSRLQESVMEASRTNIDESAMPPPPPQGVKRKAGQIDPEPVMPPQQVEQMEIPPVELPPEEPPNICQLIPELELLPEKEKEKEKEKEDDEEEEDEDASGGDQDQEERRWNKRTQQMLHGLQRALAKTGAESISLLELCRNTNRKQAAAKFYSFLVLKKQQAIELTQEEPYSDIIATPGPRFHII
# Results are given in words; binding and its absence hold for the method and conditions named. In cells and extracts the contact can be indirect. Here binding means that the protein was enriched with, or labelled near, the bait; the list need not be complete. Where a sequence is shown, tags or fusion partners need not be part of it.
# T1: FLAG-streptavidin-binding peptide (FSBP) dual epitope-tagged USP13, from the gene-edited endogenous allele (human (endogenous in HCT116)) (UniProt Q92995)
# T1 sequence: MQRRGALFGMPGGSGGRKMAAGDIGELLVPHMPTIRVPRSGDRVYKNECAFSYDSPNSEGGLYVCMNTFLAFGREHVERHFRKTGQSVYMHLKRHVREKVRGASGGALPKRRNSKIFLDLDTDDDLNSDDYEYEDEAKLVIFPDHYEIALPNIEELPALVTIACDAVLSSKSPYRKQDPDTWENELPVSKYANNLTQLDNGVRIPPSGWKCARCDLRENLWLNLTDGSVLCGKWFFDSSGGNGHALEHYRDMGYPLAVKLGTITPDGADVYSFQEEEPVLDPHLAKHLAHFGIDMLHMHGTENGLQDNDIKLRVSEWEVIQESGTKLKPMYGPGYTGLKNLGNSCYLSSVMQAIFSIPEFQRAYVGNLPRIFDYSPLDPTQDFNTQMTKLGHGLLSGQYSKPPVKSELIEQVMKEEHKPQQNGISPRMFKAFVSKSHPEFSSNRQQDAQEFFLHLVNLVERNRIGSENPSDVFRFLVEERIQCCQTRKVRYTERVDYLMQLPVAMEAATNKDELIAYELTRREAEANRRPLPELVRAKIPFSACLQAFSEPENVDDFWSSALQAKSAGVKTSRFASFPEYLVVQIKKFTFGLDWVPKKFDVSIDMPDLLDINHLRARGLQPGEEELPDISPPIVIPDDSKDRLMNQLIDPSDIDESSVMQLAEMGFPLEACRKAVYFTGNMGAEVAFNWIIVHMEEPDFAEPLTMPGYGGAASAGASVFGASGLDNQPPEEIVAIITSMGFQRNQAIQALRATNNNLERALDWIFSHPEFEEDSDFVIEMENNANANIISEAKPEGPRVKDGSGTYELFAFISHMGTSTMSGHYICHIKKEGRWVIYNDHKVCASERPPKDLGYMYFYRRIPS
# B1: SMC1A, endogenous (protein, UniProt Q14683 1-1233)
# chain: MGFLKLIEIENFKSYKGRQIIGPFQRFTAIIGPNGSGKSNLMDAISFVLGEKTSNLRVKTLRDLIHGAPVGKPAANRAFVSMVYSEEGAEDRTFARVIVGGSSEYKINNKVVQLHEYSEELEKLGILIKARNFLVFQGAVESIAMKNPKERTALFEEISRSGELAQEYDKRKKEMVKAEEDTQFNYHRKKNIAAERKEAKQEKEEADRYQRLKDEVVRAQVQLQLFKLYHNEVEIEKLNKELASKNKEIEKDKKRMDKVEDELKEKKKELGKMMREQQQIEKEIKEKDSELNQKRPQYIKAKENTSHKIKKLEAAKKSLQNAQKHYKKRKGDMDELEKEMLSVEKARQEFEERMEEESQSQGRDLTLEENQVKKYHRLKEEASKRAATLAQELEKFNRDQKADQDRLDLEERKKVETEAKIKQKLREIEENQKRIEKLEEYITTSKQSLEEQKKLEGELTEEVEMAKRRIDEINKELNQVMEQLGDARIDRQESSRQQRKAEIMESIKRLYPGSVYGRLIDLCQPTQKKYQIAVTKVLGKNMDAIIVDSEKTGRDCIQYIKEQRGEPETFLPLDYLEVKPTDEKLRELKGAKLVIDVIRYEPPHIKKALQYACGNALVCDNVEDARRIAFGGHQRHKTVALDGTLFQKSGVISGGASDLKAKARRWDEKAVDKLKEKKERLTEELKEQMKAKRKEAELRQVQSQAHGLQMRLKYSQSDLEQTKTRHLALNLQEKSKLESELANFGPRINDIKRIIQSREREMKDLKEKMNQVEDEVFEEFCREIGVRNIREFEEEKVKRQNEIAKKRLEFENQKTRLGIQLDFEKNQLKEDQDKVHMWEQTVKKDENEIEKLKKEEQRHMKIIDETMAQLQDLKNQHLAKKSEVNDKNHEMEEIRKKLGGANKEMTHLQKEVTAIETKLEQKRSDRHNLLQACKMQDIKLPLSKGTMDDISQEEGSSQGEDSVSGSQRISSIYAREALIEIDYGDLCEDLKDAQAEEEIKQEMNTLQQKLNEQQSVLQRIAAPNMKAMEKLESVRDKFQETSDEFEAARKRAKKAKQAFEQIKKERFDRFNACFESVATNIDEIYKALSRNSSAQAFLGPENPEEPYLDGINYNCVAPGKRFRPMDNLSGGEKTVAALALLFAIHSYKPAPFFVLDEIDAALDNTNIGKVANYIKEQSTCNFQAIVISLKEEFYTKAESLIGVYPEQGDCVISKVLTFDLTKYPDANPNPNEQ
# B2: PDS5A, endogenous (protein, UniProt Q29RF7 1-1337)
# chain: MDFTAQPKPATALCGVVSADGKIAYPPGVKEITDKITTDEMIKRLKMVVKTFMDMDQDSEDEKQQYLPLALHLASEFFLRNPNKDVRLLVACCLADIFRIYAPEAPYTSHDKLKDIFLFITRQLKGLEDTKSPQFNRYFYLLENLAWVKSYNICFELEDCNEIFIQLFRTLFSVINNSHNKKVQMHMLDLMSSIIMEGDGVTQELLDSILINLIPAHKNLNKQSFDLAKVLLKRTVQTIEACIANFFNQVLVLGRSSVSDLSEHVFDLIQELFAIDPHLLLSVMPQLEFKLKSNDGEERLAVVRLLAKLFGSKDSDLATQNRPLWQCFLGRFNDIHVPVRLESVKFASHCLMNHPDLAKDLTEYLKVRSHDPEEAIRHDVIVTIITAAKRDLALVNDQLLGFVRERTLDKRWRVRKEAMMGLAQLYKKYCLHGEAGKEAAEKVSWIKDKLLHIYYQNSIDDKLLVEKIFAQYLVPHNLETEERMKCLYYLYASLDPNAVKALNEMWKCQNMLRSHVRELLDLHKQPTSEANCSAMFGKLMTIAKNLPDPGKAQDFVKKFNQVLGDDEKLRSQLELLISPTCSCKQADICVREIARKLANPKQPTNPFLEMVKFLLERIAPVHIDSEAISALVKLMNKSIEGTADDEEEGVSPDTAIRSGLELLKVLSFTHPTSFHSAETYESLLQCLRMEDDKVAEAAIQIFRNTGHKIETDLPQIRSTLIPILHQKAKRGTPHQAKQAVHCIHAIFTNKEVQLAQIFEPLSRSLNADVPEQLITPLVSLGHISMLAPDQFASPMKSVVANFIVKDLLMNDRSTGEKNGKLWSPDEEVSPEVLAKVQAIKLLVRWLLGMKNNQSKSANSTLRLLSAMLVSEGDLTEQKRISKSDMSRLRLAAGSAIMKLAQEPCYHEIITPEQFQLCALVINDECYQVRQIFAQKLHKALVKLLLPLEYMAIFALCAKDPVKERRAHARQCLLKNISIRREYIKQNPMATEKLLSLLPEYVVPYMIHLLAHDPDFTRSQDVDQLRDIKECLWFMLEVLMTKNENNSHAFMKKMAENIKLTRDAQSPDESKTNEKLYTVCDVALCVINSKSALCNADSPKDPVLPMKFFTQPEKDFCNDKSYISEETRVLLLTGKPKPAGVLGAVNKPLSATGRKPYVRSTGTETGSNINVNSELNPSTGNRSREQSSEAAETGVSENEENPVRIISVTPVKNIDPVKNKEINSDQATQGNISSDRGKKRTVTAAGAENIQQKTDEKVDESGPPAPSKPRRGRRPKSESQGNATKNDDLNKPINKGRKRAAVGQESPGGLEAGNAKAPKLQDLAKKAAPAERQIDLQR
# B3: WAPL, endogenous (protein, UniProt Q7Z5K2 1-1190)
# chain: MTSRFGKTYSRKGGNGSSKFDEVFSNKRTTLSTKWGETTFMAKLGQKRPNFKPDIQEIPKKPKVEEESTGDPFGFDSDDESLPVSSKNLAQVKCSSYSESSEAAQLEEVTSVLEANSKISHVVVEDTVVSDKCFPLEDTLLGKEKSTNRIVEDDASISSCNKLITSDKVENFHEEHEKNSHHIHKNADDSTKKPNAETTVASEIKETNDTWNSQFGKRPESPSEISPIKGSVRTGLFEWDNDFEDIRSEDCILSLDSDPLLEMKDDDFKNRLENLNEAIEEDIVQSVLRPTNCRTYCRANKTKSSQGASNFDKLMDGTSQALAKANSESSKDGLNQAKKGGVSCGTSFRGTVGRTRDYTVLHPSCLSVCNVTIQDTMERSMDEFTASTPADLGEAGRLRKKADIATSKTTTRFRPSNTKSKKDVKLEFFGFEDHETGGDEGGSGSSNYKIKYFGFDDLSESEDDEDDDCQVERKTSKKRTKTAPSPSLQPPPESNDNSQDSQSGTNNAENLDFTEDLPGVPESVKKPINKQGDKSKENTRKIFSGPKRSPTKAVYNARHWNHPDSEELPGPPVVKPQSVTVRLSSKEPNQKDDGVFKAPAPPSKVIKTVTIPTQPYQDIVTALKCRREDKELYTVVQHVKHFNDVVEFGENQEFTDDIEYLLSGLKSTQPLNTRCLSVISLATKCAMPSFRMHLRAHGMVAMVFKTLDDSQHHQNLSLCTAALMYILSRDRLNMDLDRASLDLMIRLLELEQDASSAKLLNEKDMNKIKEKIRRLCETVHNKHLDLENITTGHLAMETLLSLTSKRAGDWFKEELRLLGGLDHIVDKVKECVDHLSRDEDEEKLVASLWGAERCLRVLESVTVHNPENQSYLIAYKDSQLIVSSAKALQHCEELIQQYNRAEDSICLADSKPLPHQNVTNHVGKAVEDCMRAIIGVLLNLTNDNEWGSTKTGEQDGLIGTALNCVLQVPKYLPQEQRFDIRVLGLGLLINLVEYSARNRHCLVNMETSCSFDSSICSGEGDDSLRIGGQVHAVQALVQLFLERERAAQLAESKTDELIKDAPTTQHDKSGEWQETSGEIQWVSTEKTDGTEEKHKKEEEDEELDLNKALQHAGKHMEDCIVASYTALLLGCLCQESPINVTTVREYLPEGDFSIMTEMLKKFLSFMNLTCAVGTTGQKSISRVIEYLEHC
# B4: HNRNPM, endogenous (protein, UniProt P52272 1-730)
# chain: MAAGVEAAAEVAATEIKMEEESGAPGVPSGNGAPGPKGEGERPAQNEKRKEKNIKRGGNRFEPYANPTKRYRAFITNIPFDVKWQSLKDLVKEKVGEVTYVELLMDAEGKSRGCAVVEFKMEESMKKAAEVLNKHSLSGRPLKVKEDPDGEHARRAMQKVMATTGGMGMGPGGPGMITIPPSILNNPNIPNEIIHALQAGRLGSTVFVANLDYKVGWKKLKEVFSMAGVVVRADILEDKDGKSRGIGTVTFEQSIEAVQAISMFNGQLLFDRPMHVKMDERALPKGDFFPPERPQQLPHGLGGIGMGLGPGGQPIDANHLNKGIGMGNIGPAGMGMEGIGFGINKMGGMEGPFGGGMENMGRFGSGMNMGRINEILSNALKRGEIIAKQGGGGGGGSVPGIERMGPGIDRLGGAGMERMGAGLGHGMDRVGSEIERMGLVMDRMGSVERMGSGIERMGPLGLDHMASSIERMGQTMERIGSGVERMGAGMGFGLERMAAPIDRVGQTIERMGSGVERMGPAIERMGLSMERMVPAGMGAGLERMGPVMDRMATGLERMGANNLERMGLERMGANSLERMGLERMGANSLERMGPAMGPALGAGIERMGLAMGGGGGASFDRAIEMERGNFGGSFAGSFGGAGGHAPGVARKACQIFVRNLPFDFTWKMLKDKFNECGHVLYADIKMENGKSKGCGVVKFESPEVAERACRMMNGMKLSGREIDVRIDRNA
# Target: T1, FLAG-streptavidin-binding peptide (FSBP) dual epitope-tagged USP13, from the gene-edited endogenous allele (human (endogenous in HCT116))
# Assay: affinity purification with mass spectrometry; dual-affinity purification (FLAG M2 beads, FLAG peptide elution, then streptavidin resin, biotin elution; TBS 150 mM NaCl) of FSBP-USP13 from 60 mg HCT116 nuclear extract, parental cells as control, GeLC-MS/MS
row,binding,Molecule
1,binds,"SMC3, endogenous (from UniProt Q9UQE7 1-1217)"
2,binds,"RAD21, endogenous (from UniProt O60216 1-631)"
3,binds,B1
4,binds,B2
5,binds,B3
6,binds,B4
